The target in the assay is T1, GST-Tea4 (S. pombe) (UniProt O60132).
T1 sequence: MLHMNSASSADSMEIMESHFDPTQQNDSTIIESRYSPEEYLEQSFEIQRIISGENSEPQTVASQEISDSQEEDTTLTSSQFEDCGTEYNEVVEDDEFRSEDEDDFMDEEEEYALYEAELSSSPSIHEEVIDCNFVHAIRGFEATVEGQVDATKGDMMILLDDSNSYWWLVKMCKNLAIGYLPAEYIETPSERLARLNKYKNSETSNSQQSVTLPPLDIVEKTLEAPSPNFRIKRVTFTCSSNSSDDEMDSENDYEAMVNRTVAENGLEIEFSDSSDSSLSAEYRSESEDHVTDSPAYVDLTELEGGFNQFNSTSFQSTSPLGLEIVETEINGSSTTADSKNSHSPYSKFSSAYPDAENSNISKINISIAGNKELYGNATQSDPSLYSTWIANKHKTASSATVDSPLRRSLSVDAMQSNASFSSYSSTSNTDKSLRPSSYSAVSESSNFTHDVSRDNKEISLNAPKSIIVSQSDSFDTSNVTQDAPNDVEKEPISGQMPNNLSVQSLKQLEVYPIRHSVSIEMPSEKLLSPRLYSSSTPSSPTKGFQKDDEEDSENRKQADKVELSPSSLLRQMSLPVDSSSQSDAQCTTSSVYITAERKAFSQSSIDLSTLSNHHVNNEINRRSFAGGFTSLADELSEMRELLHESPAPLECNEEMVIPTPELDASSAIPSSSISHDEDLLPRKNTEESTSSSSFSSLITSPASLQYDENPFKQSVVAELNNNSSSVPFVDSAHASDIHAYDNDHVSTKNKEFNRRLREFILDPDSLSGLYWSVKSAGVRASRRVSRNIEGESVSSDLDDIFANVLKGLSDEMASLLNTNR
In words: pull-down; 2 to 10 μg GST-tagged protein purified from E. coli and coupled to GS beads, incubated 2 h with S. pombe cell extracts (2 to 3 mg total protein; 50 mM Tris-HCl pH 7.5, 20 mM NaCl, 0.5% NP-40, 10% glycerol); blotted with anti-HA or anti-GFP; GS beads alone as control; only the target purified.

Sequences of proteins named here, by UniProt entry; tags and fusion partners are left off. A change or cut given only in a name is not applied to a line headed by its entry.
UniProt Q9Y7U6: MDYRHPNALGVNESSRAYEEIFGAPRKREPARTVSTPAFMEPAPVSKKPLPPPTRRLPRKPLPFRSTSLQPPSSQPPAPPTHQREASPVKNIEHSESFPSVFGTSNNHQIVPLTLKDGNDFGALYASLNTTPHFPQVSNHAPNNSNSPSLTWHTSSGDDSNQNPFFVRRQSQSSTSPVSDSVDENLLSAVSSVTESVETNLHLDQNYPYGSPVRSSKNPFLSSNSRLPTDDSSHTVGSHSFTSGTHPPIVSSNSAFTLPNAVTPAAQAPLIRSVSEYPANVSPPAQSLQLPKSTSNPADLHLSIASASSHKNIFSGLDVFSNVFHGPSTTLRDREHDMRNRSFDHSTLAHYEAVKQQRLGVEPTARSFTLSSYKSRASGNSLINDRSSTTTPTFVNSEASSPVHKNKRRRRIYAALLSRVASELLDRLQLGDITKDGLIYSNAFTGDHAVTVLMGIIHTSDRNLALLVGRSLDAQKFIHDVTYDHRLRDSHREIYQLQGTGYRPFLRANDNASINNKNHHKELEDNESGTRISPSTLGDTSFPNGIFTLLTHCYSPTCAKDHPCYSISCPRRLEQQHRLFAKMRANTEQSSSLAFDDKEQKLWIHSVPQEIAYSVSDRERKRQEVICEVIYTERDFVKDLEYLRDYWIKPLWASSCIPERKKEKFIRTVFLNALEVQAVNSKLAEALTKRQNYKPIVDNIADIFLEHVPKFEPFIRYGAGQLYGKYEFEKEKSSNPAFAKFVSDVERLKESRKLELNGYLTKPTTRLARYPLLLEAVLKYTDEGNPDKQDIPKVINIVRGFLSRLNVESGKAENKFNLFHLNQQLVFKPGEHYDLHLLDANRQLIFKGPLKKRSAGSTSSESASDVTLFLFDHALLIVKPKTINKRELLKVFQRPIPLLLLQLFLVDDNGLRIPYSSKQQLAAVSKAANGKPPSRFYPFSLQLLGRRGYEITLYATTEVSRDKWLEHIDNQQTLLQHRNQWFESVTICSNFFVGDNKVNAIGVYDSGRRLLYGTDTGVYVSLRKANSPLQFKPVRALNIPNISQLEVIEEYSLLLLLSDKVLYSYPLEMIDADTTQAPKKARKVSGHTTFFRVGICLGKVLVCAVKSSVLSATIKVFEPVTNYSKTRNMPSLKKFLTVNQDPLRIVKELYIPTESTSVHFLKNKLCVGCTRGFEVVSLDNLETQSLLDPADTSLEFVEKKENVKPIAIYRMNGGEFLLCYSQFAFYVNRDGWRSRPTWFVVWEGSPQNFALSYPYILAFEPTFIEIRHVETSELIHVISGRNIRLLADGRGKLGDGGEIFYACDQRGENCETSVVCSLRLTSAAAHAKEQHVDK

These are yes or no findings as the source states them, for the method shown. In cells and extracts the contact can be indirect. Binding can be weak; no strength is given. Where a sequence is shown, tags or fusion partners need not be part of it.

For the substance Rgf1ΔPTTR-HA (from UniProt Q9Y7U6), the binding entry is “binds”.

The record behind these values is paper PMC11602027.
